Some results were stated once for a whole list of compounds, not compound by compound. At least one structure is not confirmed: it was looked up by name or label, or the drawing left a doubt.
System: philtrum skin
Test: Cooling sensation after ointment applied to philtrum skin
Set-up: species or system human
Details: in vivo
Source text: A reliable place for topical application is the skin above the upper lip (above the vermilion border of the lips), on the philtrum, lateral to the philtrum until the nasolabial folds, and on the lower nostrils (subnasale). This part of the face is known to be densely innervated with cold receptors, second only to the surfaces of the eyeball and anogenitalia.
The intensity of the subjective skin sensation is rated as 0, 1, 2 or 3 with: 0 as no change; 1 as slight coolness, cold, or tingling; 2 as clear-cut signal of coolness, cold, or tingling; and 3 as robust cooling or cold. The intervals for recording sensations are 5 to 10 minutes, until two successive zeroes are obtained. The results (shown in FIG. 1) are averaged values of 4 to 6 separate trials in the same individual. The data are plotted using SigmaPlot® (Systat Software, Point Richmond Calif.) and a smoothing function with a negative exponential was used for analysis and statistical fit of the results. Confirmatory trials of cooling action of the long-acting NACE compounds were obtained in 2 to 4 individuals but not quantified for some because of the large number of chemicals that were evaluated
The onset of drug action is taken as the time to reach 2 units of coolness intensity, and offset of drug action is the time when coolness intensity drops below 2, after previously surpassing 2 units. […]

SMILES | duration of action (act for)
CCNC(=O)C1CC(C)CCC1C(C)C (centres unmarked) [WS-3, reference compound] | less than 20 minutes
CC1CCC(C(C)C)C(O)C1 (single isomer, unassigned; (-)) [(−)-menthol, reference compound] | less than 20 minutes

— patent publication US20110082204A1, “N-alkylcarbonyl-amino acid ester and N-alkylcarbonyl-amino lactone compounds and their use” (priority 2006, published 2011)
